# Test results: patent US5849733A, “2-thio or 2-oxo flavopiridol analogs” (Bristol-Myers Squibb Co., priority 1997, dated 1998)
# Chains of the proteins cited; added tags and fusions are not shown.
# UniProt P06493, whole entry, species assumed: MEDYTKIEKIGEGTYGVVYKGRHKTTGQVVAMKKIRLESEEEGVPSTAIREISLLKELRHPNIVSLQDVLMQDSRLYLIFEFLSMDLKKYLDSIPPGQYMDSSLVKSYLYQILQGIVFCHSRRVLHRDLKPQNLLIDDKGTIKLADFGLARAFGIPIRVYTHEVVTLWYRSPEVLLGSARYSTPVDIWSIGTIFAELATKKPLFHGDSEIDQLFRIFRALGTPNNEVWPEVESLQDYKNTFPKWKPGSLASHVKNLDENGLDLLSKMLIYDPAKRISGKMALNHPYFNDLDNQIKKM
# UniProt P11802, whole entry, species assumed: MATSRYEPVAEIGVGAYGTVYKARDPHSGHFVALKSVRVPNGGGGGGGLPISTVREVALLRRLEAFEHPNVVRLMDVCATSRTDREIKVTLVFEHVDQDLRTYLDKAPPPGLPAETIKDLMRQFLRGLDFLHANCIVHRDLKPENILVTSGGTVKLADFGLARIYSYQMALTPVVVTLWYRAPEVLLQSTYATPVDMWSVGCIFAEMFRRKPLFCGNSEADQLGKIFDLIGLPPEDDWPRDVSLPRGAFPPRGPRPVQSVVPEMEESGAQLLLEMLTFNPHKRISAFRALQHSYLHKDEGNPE
# pIC50: −log10 of the molar value. Counter-ions that a name gives are not always drawn. Some entries share one result that the patent states for a list of compounds.
# Assays:
# Format in all cases: biochemical
# cdc2/cyclin B1 = biological target: T1, cdc2/cyclin B1 (Homo sapiens, UniProt P06493); assay: cdc2/cyclin B1 Kinase Assay (incorporation of 32P into histone HI); details: 25 μM ATP, 30° C., 30 minutes, histone HI substrate
# T1 construct: made in house; host or cells: baculovirus (insect cells)
# cdk4/cyclin D1 = biological target: T2, cdk4/cyclin D1 (Homo sapiens, UniProt P11802); assay: cdk4/cyclin D1 Kinase Assay (incorporation of 32P into the retinoblastoma protein); details: 25 μM ATP, 30° C., 1 hour, retinoblastoma protein substrate
# T2 construct: made in house; host or cells: cdk4: baculovirus (insect cells); cyclin D1: bacteria
# cdk2/cyclin E = biological target: T3, cdk2/cyclin E (Homo sapiens, UniProt P24941); assay: cdk2/cyclin E Kinase Assay (incorporation of 32P into the retinoblastoma protein); details: 25 μM ATP, 30° C., 30 minutes, retinoblastoma protein substrate
# T3 construct: made in house; host or cells: baculovirus (insect cells)
SMILES,pIC50 (cdc2/cyclin B1),pIC50 (cdk4/cyclin D1),pIC50 (cdk2/cyclin E)
"CCSc1cc(=O)c2c(O)cc(OC)c([C@H]3CCN(C)C[C@H]3O)c2o1 (racemic) [Example 4, cis-(±)-2-(Ethylthio)-5-hydroxy-8-(3-hydroxy-1-methyl-4-piperidinyl)-7-methoxy-4H-1-benzopyran-4-one]",> 5.00,> 4.00,> 4.70
"CN1CC[C@H](c2c(O)cc(O)c3c(=O)cc(SCCO)oc23)[C@H](O)C1 (racemic) [Example 15, cis-(±)-5,7-Dihydroxy-2-[(2-hydroxyethyl)thio]-8-(3-hydroxy-1-methyl-4-piperidinyl)-4H-1-benzopyran-4-one, trifluoroacetate]",> 5.00,> 4.00,> 4.70
"CCCCSc1cc(=O)c2c(O)cc(O)c([C@H]3CCN(C)C[C@H]3O)c2o1 (racemic) [Example 3, cis-(±)-2-(Butylthio)-5,7-dihydroxy-8-(3-hydroxy-1-methyl-4-piperidinyl)-4H-1-benzopyran-4-one]",> 5.00,> 4.00,> 4.70
COc1ccc(CSc2cc(=O)c3c(O)cc(O)c(C4CCN(C)CC4O)c3o2)cc1 (centres unmarked) [Example 18],> 5.00,> 4.00,> 4.70
CC(=O)NCCSc1cc(=O)c2c(O)cc(O)c(C3CCN(C)CC3O)c2o1 (centres unmarked) [Example 19],> 5.00,> 4.00,> 4.70
CN1CCC(c2c(O)cc(O)c3c(=O)cc(SCCO)oc23)C(O)C1 (centres unmarked) [Example 20],> 5.00,> 4.00,> 4.70
"COC(=O)CCSc1cc(=O)c2c(O)cc(O)c([C@H]3CCN(C)C[C@H]3O)c2o1 (relative stereo) [Example 5, cis-(±)-3-[[5,7-Dihydroxy-8-(3-hydroxy-1-methyl-4-piperidinyl)-4-oxo-4H-1-benzopyran-2-yl]thio]propanoic acid, methyl ester]",> 5.00,> 4.00,> 4.70
CN1CCC(c2c(O)cc(O)c3c(=O)cc(SCc4ccc(C(C)(C)C)cc4)oc23)C(O)C1 (centres unmarked) [Example 22],> 5.00,> 4.00,> 4.70
"COc1ccc(CSc2cc(=O)c3c(O)cc(O)c([C@H]4CCN(C)C[C@H]4O)c3o2)cc1 (racemic) [Example 13, cis-(±)-5,7-Dihydroxy-8-(3-hydroxy-1-methyl-4-piperidinyl)-2-[[(4-methoxyphenyl)methyl]thio]-4H-1-benzopyran-4-one, trifluoroacetate]",> 5.00,> 4.00,> 4.70
"CC(=O)NCCSc1cc(=O)c2c(O)cc(O)c([C@H]3CCN(C)C[C@H]3O)c2o1 (racemic) [Example 14, cis-(±)-N-[2-[[5,7-Dihydroxy-8-(3-hydroxy-1-methyl-4-piperidinyl)-4-oxo4H-1-benzopyran-2-yl]thio]ethyl]acetamide, trifluoroacetate]",> 5.00,> 4.00,> 4.70

# Further lines, results first:
pIC50 (cdc2/cyclin B1),pIC50 (cdk4/cyclin D1),pIC50 (cdk2/cyclin E),SMILES
> 5.00,> 4.00,> 4.70,CN1CCC(c2c(O)cc(O)c3c(=O)cc(Sc4ccc(C(C)(C)C)cc4)oc23)C(O)C1 (centres unmarked) [Example 24]
> 5.00,> 4.00,> 4.70,CCc1ccc(Sc2cc(=O)c3c(O)cc(O)c(C4CCN(C)CC4O)c3o2)cc1 (centres unmarked) [Example 26]
> 5.00,> 4.00,> 4.70,"CN1CC[C@H](c2c(O)cc(O)c3c(=O)cc(Sc4ccccc4Cl)oc23)[C@H](O)C1 (single isomer, unassigned) [Example 8, cis-(-)-2-[(2-Chlorophenyl)thio]-5,7-dihydroxy-8-(3-hydroxy-1-methyl-4-piperidinyl)-4H-1-benzopyran-4-one]"
> 5.00,> 4.00,> 4.70,CN1CCC(c2c(O)cc(O)c3c(=O)cc(Sc4ccccc4Cl)oc23)C(O)C1 (centres unmarked) [Example 23]
> 5.00,> 4.00,> 4.70,"CN1CC[C@H](c2c(O)cc(O)c3c(=O)cc(Sc4ccccc4Cl)oc23)[C@H](O)C1 (racemic) [Example 6, cis-(±)-2-[(2-Chlorophenyl)thio]-5,7-dihydroxy-8-(3-hydroxy-1-methyl-4-piperidinyl)-4H-1-benzopyran-4-one]"
> 5.00,> 4.00,> 4.70,Cc1ccc(Sc2cc(=O)c3c(O)cc(O)c(C4CCN(C)CC4O)c3o2)cc1C (centres unmarked) [Example 25]
> 5.00,> 4.00,> 4.70,COc1ccc(Sc2cc(=O)c3c(O)cc(O)c(C4CCN(C)CC4O)c3o2)cc1 (centres unmarked) [Example 17]
> 5.00,> 4.00,> 4.70,CN1CCC(c2c(O)cc(O)c3c(=O)cc(Sc4ccc(OC(F)(F)F)cc4)oc23)C(O)C1 (centres unmarked) [Example 21]
,> 4.00,,CC(=O)Nc1ccc(Sc2cc(=O)c3c(O)cc(O)c(C4CCN(C)CC4O)c3o2)cc1 (centres unmarked) [Example 27]
> 5.00,> 4.00,,"CN1CC[C@H](c2c(O)cc(O)c3c(=O)cc(Sc4ccccc4)oc23)[C@H](O)C1 (racemic) [Example 2, cis-(±)-5,7-Dihydroxy-8-(3-hydroxy-1-methyl-4-piperidinyl)-2-(phenylthio)-4H-1-benzopyran-4-one]"
> 5.00,> 4.00,> 4.70,"CN1CC[C@H](c2c(O)cc(O)c3c(=O)cc(SCc4ccccc4)oc23)[C@H](O)C1 (racemic) [Example 11, cis-(±)-5,7-Dihydroxy-8-(3-hydroxy-1-methyl-4-piperidinyl)-2-[(phenylmethyl)thio]4H-1-benzopyran-4-one, trifluoroacetate]"
> 5.00,> 4.00,> 4.70,"COc1ccc(Sc2cc(=O)c3c(O)cc(O)c([C@H]4CCN(C)C[C@H]4O)c3o2)cc1 (racemic) [Example 12, cis-(±)-5,7-Dihydroxy-8-(3-hydroxy-1-methyl-4-piperidinyl)-2-[(4-methoxyphenyl)thio]4H-1-benzopyran-4-one, trifluoroacetate]"
> 5.00,> 4.00,> 4.70,"CN1CC[C@H](c2c(O)cc(O)c3c(=O)cc(Oc4ccccc4)oc23)[C@H](O)C1 (racemic) [Example 7, cis-(±)-5,7-Dihydroxy-8-(3-hydroxy-1-methyl-4-piperidinyl)-2-phenoxy-4H-1-benzopyran-4-one]"
> 5.00,> 4.00,,"CCSc1cc(=O)c2c(O)cc(O)c([C@H]3CCN(C)C[C@H]3O)c2o1 (racemic) [Example 1, cis-(±)-2-(ethylthio)-5,7-dihydroxy-8-(3-hydroxy-1-methyl-4-piperidinyl)-4H-1-benzopyran-4-one]"
